These are yes or no findings as the source states them, for the method shown. Binding seen in cells or lysates may run through a third protein. Some binding calls cover weakened binding; strength is not graded here. Sequences can lack the tags named with a protein.
B1: Cdc5 (protein, Saccharomyces cerevisiae, UniProt P32562 1-705, looked up)
chain: MSLGPLKAINDKQLNTRSKLVHTPIKGNTADLVGKENHFKQTKRLDPNNDHHHQPAQKKKREKLSALCKTPPSLIKTRGKDYHRGHFLGEGGFARCFQIKDDSGEIFAAKTVAKASIKSEKTRKKLLSEIQIHKSMSHPNIVQFIDCFEDDSNVYILLEICPNGSLMELLKRRKVLTEPEVRFFTTQICGAIKYMHSRRVIHRDLKLGNIFFDSNYNLKIGDFGLAAVLANESERKYTICGTPNYIAPEVLMGKHSGHSFEVDIWSLGVMLYALLIGKPPFQARDVNTIYERIKCRDFSFPRDKPISDEGKILIRDILSLDPIERPSLTEIMDYVWFRGTFPPSIPSTVMSEAPNFEDIPEEQSLVNFKDCMEKSLLLESMSSDKIQRQKRDYISSIKSSIDKLEEYHQNRPFLPHSLSPGGTKQKYKEVVDIEAQRRLNDLAREARIRRAQQAVLRKELIATSTNVIKSEISLRILASECHLTLNGIVEAEAQYKMGGLPKSRLPKIKHPMIVTKWVDYSNKHGFSYQLSTEDIGVLFNNGTTVLRLADAEEFWYISYDDREGWVASHYLLSEKPRELSRHLEVVDFFAKYMKANLSRVSTFGREEYHKDDVFLRRYTRYKPFVMFELSDGTFQFNFKDHHKMAISDGGKLVTYISPSHESTTYPLVEVLKYGEIPGYPESNFREKLTLIKEGLKQKSTIVTVD
B2: Kss1 (protein, Saccharomyces cerevisiae, UniProt P14681 1-368, looked up)
chain: MARTITFDIPSQYKLVDLIGEGAYGTVCSAIHKPSGIKVAIKKIQPFSKKLFVTRTIREIKLLRYFHEHENIISILDKVRPVSIDKLNAVYLVEELMETDLQKVINNQNSGFSTLSDDHVQYFTYQILRALKSIHSAQVIHRDIKPSNLLLNSNCDLKVCDFGLARCLASSSDSRETLVGFMTEYVATRWYRAPEIMLTFQEYTTAMDIWSCGCILAEMVSGKPLFPGRDYHHQLWLILEVLGTPSFEDFNQIKSKRAKEYIANLPMRPPLPWETVWSKTDLNPDMIDLLDKMLQFNPDKRISAAEALRHPYLAMYHDPSDEPEYPPLNLDDEFWKLDNKIMRPEEEEEVPIEMLKDMLYDELMKTME

Columns and labels:
Assay in all cases: anti-FLAG co-IP, LC-MS/MS
[1] = target: T1, Smc3 (Saccharomyces cerevisiae) (UniProt P47037)
T1 sequence (looked up): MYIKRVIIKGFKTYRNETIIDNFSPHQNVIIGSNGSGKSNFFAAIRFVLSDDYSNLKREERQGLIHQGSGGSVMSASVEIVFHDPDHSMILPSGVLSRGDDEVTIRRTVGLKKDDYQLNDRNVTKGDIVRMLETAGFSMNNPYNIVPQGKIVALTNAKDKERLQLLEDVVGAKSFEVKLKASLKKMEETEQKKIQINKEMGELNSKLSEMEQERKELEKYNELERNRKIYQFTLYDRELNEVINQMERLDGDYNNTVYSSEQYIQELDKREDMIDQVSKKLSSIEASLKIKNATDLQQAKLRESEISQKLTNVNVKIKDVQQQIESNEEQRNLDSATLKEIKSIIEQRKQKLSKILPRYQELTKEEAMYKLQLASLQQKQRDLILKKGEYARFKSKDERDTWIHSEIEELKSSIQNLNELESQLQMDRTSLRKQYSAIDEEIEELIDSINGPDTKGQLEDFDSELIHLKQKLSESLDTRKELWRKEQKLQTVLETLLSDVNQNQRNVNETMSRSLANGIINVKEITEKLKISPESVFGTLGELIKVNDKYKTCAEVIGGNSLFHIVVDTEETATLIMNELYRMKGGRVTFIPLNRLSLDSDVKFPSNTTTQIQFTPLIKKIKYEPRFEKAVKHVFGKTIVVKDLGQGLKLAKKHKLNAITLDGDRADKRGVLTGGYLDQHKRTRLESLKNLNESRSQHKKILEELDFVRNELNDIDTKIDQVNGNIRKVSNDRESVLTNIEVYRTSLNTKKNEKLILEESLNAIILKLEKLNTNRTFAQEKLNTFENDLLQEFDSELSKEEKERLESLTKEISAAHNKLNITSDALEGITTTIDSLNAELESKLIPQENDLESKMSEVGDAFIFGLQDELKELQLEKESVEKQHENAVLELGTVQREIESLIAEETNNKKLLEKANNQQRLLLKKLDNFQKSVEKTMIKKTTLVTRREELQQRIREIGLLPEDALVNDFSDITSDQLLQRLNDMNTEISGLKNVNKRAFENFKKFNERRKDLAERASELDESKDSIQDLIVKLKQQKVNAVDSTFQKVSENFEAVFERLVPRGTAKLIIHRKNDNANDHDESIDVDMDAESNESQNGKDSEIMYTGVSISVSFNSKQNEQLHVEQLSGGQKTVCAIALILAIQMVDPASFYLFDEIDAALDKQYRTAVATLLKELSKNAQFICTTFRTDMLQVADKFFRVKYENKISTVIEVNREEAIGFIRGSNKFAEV

[2] = target: T2, Ste11 (Saccharomyces cerevisiae) (UniProt P23561)
T2 sequence (looked up): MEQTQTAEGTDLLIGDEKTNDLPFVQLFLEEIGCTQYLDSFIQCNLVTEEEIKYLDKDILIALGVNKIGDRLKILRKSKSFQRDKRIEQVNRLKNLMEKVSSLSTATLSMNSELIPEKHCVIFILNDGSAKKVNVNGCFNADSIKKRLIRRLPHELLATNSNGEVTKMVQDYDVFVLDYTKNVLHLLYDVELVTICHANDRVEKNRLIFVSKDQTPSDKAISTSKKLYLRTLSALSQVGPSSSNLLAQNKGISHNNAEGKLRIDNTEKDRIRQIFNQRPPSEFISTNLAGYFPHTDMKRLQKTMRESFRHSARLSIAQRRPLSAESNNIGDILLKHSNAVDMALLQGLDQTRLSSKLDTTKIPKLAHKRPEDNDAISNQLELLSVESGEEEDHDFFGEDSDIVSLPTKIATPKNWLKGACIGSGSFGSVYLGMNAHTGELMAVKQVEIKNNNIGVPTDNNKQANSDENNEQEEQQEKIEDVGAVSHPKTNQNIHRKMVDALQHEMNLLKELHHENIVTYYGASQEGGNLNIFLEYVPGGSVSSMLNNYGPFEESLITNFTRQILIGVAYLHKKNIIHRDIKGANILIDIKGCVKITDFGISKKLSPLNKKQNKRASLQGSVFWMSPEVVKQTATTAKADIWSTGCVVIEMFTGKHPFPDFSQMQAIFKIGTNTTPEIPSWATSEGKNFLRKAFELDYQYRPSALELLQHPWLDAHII

[3] = target: T3, Ste7 (Saccharomyces cerevisiae) (UniProt P06784)
T3 sequence (looked up): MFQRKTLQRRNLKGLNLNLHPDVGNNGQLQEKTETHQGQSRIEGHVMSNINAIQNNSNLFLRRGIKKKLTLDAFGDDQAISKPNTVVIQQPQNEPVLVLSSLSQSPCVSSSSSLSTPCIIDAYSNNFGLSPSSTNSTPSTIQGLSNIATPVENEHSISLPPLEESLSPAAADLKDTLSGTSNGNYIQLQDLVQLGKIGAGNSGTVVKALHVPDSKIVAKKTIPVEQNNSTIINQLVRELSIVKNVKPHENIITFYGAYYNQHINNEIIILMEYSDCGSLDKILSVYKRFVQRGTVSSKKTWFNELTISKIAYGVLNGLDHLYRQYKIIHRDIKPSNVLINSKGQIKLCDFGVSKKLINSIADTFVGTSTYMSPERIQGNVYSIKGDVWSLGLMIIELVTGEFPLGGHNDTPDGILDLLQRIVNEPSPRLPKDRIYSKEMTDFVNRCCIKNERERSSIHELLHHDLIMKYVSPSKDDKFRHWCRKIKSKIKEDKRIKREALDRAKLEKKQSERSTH

Binder | binding [1] | binding [2] | binding [3]
B1 | binds | – | –
B2 | – | binds | binds

— US20030162221A1
